# “And” between values parts separate entries of the source, which are not always exact repeats. Equal values may be shown once. Some of the results follow.
# Assays:
# Assay in all cases: protein microarray (ProtoArray v5.0), streptavidin-Alexa Fluor 647
# Conditions in all cases: 3'-biotin; 20 mM Tris (pH 7.5), 5 mM MgCl2, 100 mM KCl, 0.1% Tween-20, A/T-rich and random oligonucleotide blockers; temperature not stated; high values mean tight binding
# PTPN2 (human) = test system: PTPN2 (human)
# PTPN5 (human) = test system: PTPN5 (human)
# PTPN7 (human) = test system: PTPN7 (human)
# PTPRE (human) = test system: PTPRE (human)
# PTPRO (human) = test system: PTPRO (human)
# PTS (human) = test system: PTS (human)
# PUM2 (human) = test system: PUM2 (human)
# PVALB (human) = test system: PVALB (human)
# PVRL3 (human) = test system: PVRL3 (human)
# PXN (human) = test system: PXN (human)
# PYCR1 (human) = test system: PYCR1 (human)
# PYCR2 (human) = test system: PYCR2 (human)
# PYHIN1 (human) = test system: PYHIN1 (human)
# Paladin (human) = test system: Paladin (human)
# [1] = test system: Pantothenate kinase 1 (human)
# Paralemmin-2 (human) = test system: Paralemmin-2 (human)
# [2] = test system: Parvalbumin alpha (human)
# [3] = test system: Peptidase inhibitor 16 (human)
# [4] = test system: Peptidyl-prolyl cis-trans isomerase-like 3 (human)
# [5] = test system: Peptidyl-tRNA hydrolase 2, mitochondrial (human)
sequence,measurement,setting,value
GGGAGGCTGAGGCAGG [G4-1 biotinylated (PQS2)],binding signal,PTPN2 (human),-0.347 z-score
same,binding signal,PTPN5 (human),-0.339 z-score
same,binding signal,PTPN7 (human),-0.29 z-score
same,binding signal,PTPRE (human),-0.289 z-score
same,binding signal,PTPRO (human),-0.321 z-score
same,binding signal,PTS (human),-0.318 z-score
same,binding signal,PUM2 (human),-0.28 z-score
same,binding signal,PVALB (human),-0.282 z-score
same,binding signal,PVRL3 (human),-0.331 z-score
same,binding signal,PXN (human),-0.303 z-score and -0.348 z-score
same,binding signal,PYCR1 (human),-0.35 z-score
same,binding signal,PYCR2 (human),-0.308 z-score
same,binding signal,PYHIN1 (human),-0.343 z-score
same,binding signal,Paladin (human),-0.327 z-score
same,binding signal,[1],-0.356 z-score and -0.329 z-score
same,binding signal,Paralemmin-2 (human),-0.323 z-score
same,binding signal,[2],-0.334 z-score
same,binding signal,[3],-0.337 z-score
same,binding signal,[4],-0.356 z-score
same,binding signal,[5],6.85 z-score

# 2 records drawn at random from the list so far, as already listed:
sequence,measurement,setting,value
GGGAGGCTGAGGCAGG [G4-1 biotinylated (PQS2)],binding signal,PYCR2 (human),-0.308 z-score
same,binding signal,Paladin (human),-0.327 z-score
